Measured values from patent US20200369773A1 (CELDARA MEDICAL, published 2020).
Results are given in words; binding and its absence hold for the method and conditions named. Some results given as binding are weak or reduced against the parent protein; the word gives no strength. Sequences can lack the tags named with a protein. One block for each binder: values may come before it.

Target: T1, FITC-recombinant mouse Fn14:human Fc (ENZO ALX-522-036F) (mouse) (UniProt Q9CR75)
T1 sequence (chain, FITC label (site not stated)): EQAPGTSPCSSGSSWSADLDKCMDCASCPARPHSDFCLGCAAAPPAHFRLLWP
Test: flow cytometry; transduced mouse T cells stained with FITC-recombinant mouse Fn14:human Fc

binding: binds
B1: scFvP3G5VHVL-mCD28H-mCD28TM-mCD28CS-mCD3zICS (anti-Fn14 CAR) (receptor)
chain: QVQLQQSGPEVVRPGVSVKISCKGSGYTFTDYGIHWVKQSHAKSLEWIGVISTYNGYTNYNQKFKGKATMTVDKSSSTAYMELARLTSEDSAIYYCARAYYGNLYYAMDYWGQGTSVTVSSGGGGSGGGGSGGGGSDIVLTQSPASLAVSLGQRATISCRANKSVSTSSYSYMHWYQQKPGQPPKLLIKYASNLESGVPARFSGSGSGTDFILNIHPVEEEDAATYYCQHSRELPFTFGSGTKLEIKIKEKHLCHTQSSPKLFWALVVVAGVLFCYGLLVTVALCVIWTNSRRNRLLQSDYMNMTPRRPGLTRKPYQPYAPARDFAAYRPRAKFSRSAETAANLQDPNQLYNELNLGRREEYDVLEKKRARDPEMGGKQQRRRNPQEGVYNALQKDKMAEAYSEIGTKGERRRGKGHDGLYQGLSTATKDTYDALHMQTLAPR
notes: Chimeric antigen receptor on transduced mouse T cells

binding: binds
B2: scFvP3G5VLVH-mCD28H-mCD28TM-mCD28CS-mCD3zICS (anti-Fn14 CAR) (receptor)
chain: DIVLTQSPASLAVSLGQRATISCRANKSVSTSSYSYMHWYQQKPGQPPKLLIKYASNLESGVPARFSGSGSGTDFILNIHPVEEEDAATYYCQHSRELPFTFGSGTKLEIKGGGGSGGGGSGGGGSQVQLQQSGPEVVRPGVSVKISCKGSGYTFTDYGIHWVKQSHAKSLEWIGVISTYNGYTNYNQKFKGKATMTVDKSSSTAYMELARLTSEDSAIYYCARAYYGNLYYAMDYWGQGTSVTVSSIKEKHLCHTQSSPKLFWALVVVAGVLFCYGLLVTVALCVIWTNSRRNRLLQSDYMNMTPRRPGLTRKPYQPYAPARDFAAYRPRAKFSRSAETAANLQDPNQLYNELNLGRREEYDVLEKKRARDPEMGGKQQRRRNPQEGVYNALQKDKMAEAYSEIGTKGERRRGKGHDGLYQGLSTATKDTYDALHMQTLAPR
notes: as for B1
